From the supplement of paper PMC10626197
Structures can show the parent of a compound that is named as a salt. Several reference drugs read as weak here; read low effects with care.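 MCF7, a breast cancer cell line, was exposed to pairs of drugs across a grid of doses. Every plate had solvent-only (DMSO) wells as the untreated reference and a doxorubicin series as the total-kill control. No hit threshold is applied to these viability readings.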

System: MCF7
Experiment: cell viability relative to DMSO control (raw); higher = more viable cells
Conditions: exposure time 72 h
Protocol: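 MCF7 cells, 1000 cells/well in 384-well plates, treated with 6x6 dose matrices of drug pairs (1:3 serial dilutions, DMSO as lowest dose) for 72 h at 37 °C. Viability read by CellTiter-Glo luminescence, 3 biological replicates. Normalised viability sets 0% at the highest doxorubicin dose and 100% at the 0,0 µM control per combination.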

O=c1[nH]cc(F)c(=O)[nH]1 [5-Fluorouracil] + COc1cc2c(Oc3ccc(NC(=O)C4(C(=O)Nc5ccc(F)cc5)CC4)cc3F)ccnc2cc1OCCCN1CCOCC1 [Foretinib]
cell viability [%]
Conditions | drug 2 concentration 0 µM | drug 2 concentration 0.348765 µM | drug 2 concentration 1.0463 µM | drug 2 concentration 3.13889 µM | drug 2 concentration 9.41667 µM | drug 2 concentration 28.25 µM
drug 1 concentration 0.617284 µM | 83.2 | 69 | 57.8 | 24.3 | 2.79 | 1.08
drug 1 concentration 1.85185 µM | 81.2 | 79.1 | 64.3 | 33.6 | 3.92 | 1.17
drug 1 concentration 5.55556 µM | 71.2 | 64.9 | 55.7 | 26.9 | 2.67 | 0.867
drug 1 concentration 16.6667 µM | 67.7 | 65 | 58.8 | 22.9 | 2.45 | 0.86
drug 1 concentration 50 µM | 72.7 | 61.4 | 55.1 | 18.1 | 2.21 | 1.1

O=c1[nH]cc(F)c(=O)[nH]1 [5-Fluorouracil] + Cc1onc(-c2ccccc2)c1-c1ccc(S(N)(=O)=O)cc1 [Valdecoxib]
cell viability [%]
Conditions | drug 2 concentration 0 µM | drug 2 concentration 0.17284 µM | drug 2 concentration 0.518519 µM | drug 2 concentration 1.55556 µM | drug 2 concentration 4.66667 µM | drug 2 concentration 14 µM
drug 1 concentration 0.617284 µM | 96.8 | 94.4 | 97.8 | 94.1 | 91.5 | 92.3
drug 1 concentration 1.85185 µM | 91.6 | 90.8 | 97.5 | 97.8 | 94.7 | 76.8
drug 1 concentration 5.55556 µM | 88.2 | 100 | 96.3 | 91.8 | 94.4 | 86.4
drug 1 concentration 16.6667 µM | 77.1 | 76.3 | 84.4 | 84.9 | 80.7 | 63.2
drug 1 concentration 50 µM | 85.5 | 89.1 | 88.6 | 87.3 | 84.9 | 79.5

CC(=O)O[C@H]1CC[C@@]2(C)C(=CC[C@@H]3[C@@H]2CC[C@]2(C)C(c4cccnc4)=CC[C@@H]32)C1 [Abiraterone acetate] + C=C1/C(=C\C=C2/CCC[C@]3(C)[C@@H]([C@H](C)CCCC(C)C)CC[C@@H]23)C[C@@H](O)C[C@@H]1O [Alfacalcidol]
cell viability [%]
Conditions | drug 2 concentration 0 µM | drug 2 concentration 0.617284 µM | drug 2 concentration 1.85185 µM | drug 2 concentration 5.55556 µM | drug 2 concentration 16.6667 µM | drug 2 concentration 50 µM
drug 1 concentration 0.246914 µM | 106 | 104 | 99.2 | 89.5 | 81.9 | 0.803
drug 1 concentration 0.740741 µM | 84.5 | 80.2 | 87.2 | 88.9 | 69.9 | 1.15
drug 1 concentration 2.22222 µM | 98.1 | 95.6 | 91.9 | 84.1 | 77.6 | 0.721
drug 1 concentration 6.66667 µM | 85.2 | 78.7 | 77 | 80.7 | 58.2 | 0.893
drug 1 concentration 20 µM | 64.6 | 67.8 | 61.2 | 58.2 | 60.3 | 0.713

CC(=O)O[C@H]1CC[C@@]2(C)C(=CC[C@@H]3[C@@H]2CC[C@]2(C)C(c4cccnc4)=CC[C@@H]32)C1 [Abiraterone acetate] + CN(C)C[C@@H]1CCn2cc(c3ccccc32)C2=C(C(=O)NC2=O)c2cn(c3ccccc23)CCO1 [Ruboxistaurin (LY333531 HCl)]
cell viability [%]
Conditions | drug 2 concentration 0 µM | drug 2 concentration 0.123457 µM | drug 2 concentration 0.37037 µM | drug 2 concentration 1.11111 µM | drug 2 concentration 3.33333 µM | drug 2 concentration 10 µM
drug 1 concentration 0.246914 µM | 90.9 | 91.1 | 103 | 99.9 | 85.6 | 19.1
drug 1 concentration 0.740741 µM | 95.9 | 97.8 | 102 | 97.4 | 84.6 | 27
drug 1 concentration 2.22222 µM | 98.2 | 108 | 106 | 112 | 87.9 | 24.1
drug 1 concentration 6.66667 µM | 85.8 | 90 | 88.6 | 89.1 | 79.2 | 12
drug 1 concentration 20 µM | 54.6 | 56.6 | 57 | 50.9 | 56 | 13.5

CC(=O)O[C@H]1CC[C@@]2(C)C(=CC[C@@H]3[C@@H]2CC[C@]2(C)C(c4cccnc4)=CC[C@@H]32)C1 [Abiraterone acetate] + Nc1ccccc1NC(=O)c1ccc(CNC(=O)OCc2cccnc2)cc1 [Entinostat]
cell viability [%]
Conditions | drug 2 concentration 0 µM | drug 2 concentration 0.0740741 µM | drug 2 concentration 0.222222 µM | drug 2 concentration 0.666667 µM | drug 2 concentration 2 µM | drug 2 concentration 6 µM
drug 1 concentration 0.246914 µM | 109 | 106 | 105 | 92 | 69.6 | 31.3
drug 1 concentration 0.740741 µM | 123 | 129 | 121 | 110 | 71.6 | 27.5
drug 1 concentration 2.22222 µM | 108 | 114 | 104 | 95.2 | 72.4 | 30.2
drug 1 concentration 6.66667 µM | 102 | 99.1 | 102 | 85.7 | 53 | 18.7
drug 1 concentration 20 µM | 67.3 | 65.4 | 56.7 | 45.9 | 30.5 | 18.9

Oc1ncnc2[nH]ncc12 [Allopurinol] + COc1cc2nc(N3CCN(C(=O)C4CCCO4)CC3)nc(N)c2cc1OC [Terazosin (hydrochloride dihydrate)]
cell viability [%]
Conditions | drug 2 concentration 0 µM | drug 2 concentration 0.0308642 µM | drug 2 concentration 0.0925926 µM | drug 2 concentration 0.277778 µM | drug 2 concentration 0.833333 µM | drug 2 concentration 2.5 µM
drug 1 concentration 0.740741 µM | 83.9 | 85.6 | 96.2 | 95.1 | 89.5 | 87.6
drug 1 concentration 2.22222 µM | 85.5 | 88.4 | 90.8 | 93.3 | 92.5 | 78.9
drug 1 concentration 6.66667 µM | 94.1 | 91.1 | 91.7 | 82.7 | 91.8 | 93.5
drug 1 concentration 20 µM | 85.1 | 89.2 | 95.8 | 95.3 | 86.3 | 84.6
drug 1 concentration 60 µM | 98.9 | 105 | 106 | 97.5 | 95.2 | 94.5

CC(C)(C#N)c1cc(Cn2cncn2)cc(C(C)(C)C#N)c1 [Anastrozole] + CN(C)C1CCN(C(=O)c2ccc(NC(=O)Nc3ccc(-c4nc(N5CCOCC5)nc(N5CCOCC5)n4)cc3)cc2)CC1 [Gedatolisib (PF-05212384; PKI-587)]
cell viability [%]
Conditions | drug 2 concentration 0 µM | drug 2 concentration 0.0148148 µM | drug 2 concentration 0.0444444 µM | drug 2 concentration 0.133333 µM | drug 2 concentration 0.4 µM | drug 2 concentration 1.2 µM
drug 1 concentration 0.00864198 µM | 97.6 | 70.5 | 45.8 | 34.5 | 26.4 | 23.9
drug 1 concentration 0.0259259 µM | 97.5 | 70 | 48.3 | 31.2 | 23.7 | 22
drug 1 concentration 0.0777778 µM | 87.9 | 66 | 47.5 | 32 | 26.2 | 20.3
drug 1 concentration 0.233333 µM | 91.7 | 66.2 | 47.4 | 32.3 | 19.9 | 20.7
drug 1 concentration 0.7 µM | 109 | 73.3 | 50.3 | 31 | 27 | 24.4
